For at least one entry, the source does not settle the construct or the ends of the probe. For some of these results: No signal at the amounts used counts as a negative.

Data set [1] deals with MBP-PPR756(41-756)-HIS. The data set can be described thus: EMSA. To be noted: 100 fmol RNA in 20 uL; 10x binding buffer: 100 mM HEPES pH 7.3, 200 mM KCl, 10 mM MgCl2, 10 mM DTT (1x: 10 mM HEPES, 20 mM KCl, 1 mM MgCl2, 1 mM DTT); 10 U RNasin; recombinant protein; protein details: N-terminal MBP, C-terminal 6xHis; label: 5' 6-FAM.
Data set [2] relates to MBP-PPR756(41-756)-HIS. The data set can be described thus: competition with a labelled probe. To be noted: 100 fmol RNA in 20 uL, 10x binding buffer: 100 mM HEPES pH 7.3, 200 mM KCl, 10 mM MgCl2, 10 mM DTT (1x: 10 mM HEPES, 20 mM KCl, 1 mM MgCl2, 1 mM DTT), 10 U RNasin, recombinant protein, protein details: N-terminal MBP, C-terminal 6xHis.

With “UAUGGCGGUAACUGUCGUUUUGGUGCCAUCUUUAU [atp6 probe (atp6-FAM)]”, in the data set on MBP-PPR756(41-756)-HIS [1], the binding result was “binds”.
“ACAGCUAUAAACAGUUUCUUGUUCCCAUUAACAA [unlabeled ccmC competitor]”: in the data set on MBP-PPR756(41-756)-HIS [2] (vs labeled ccmC probe), the binding result is listed as “binds”.
For “UCCUGCUGCUCAUGGUGUUUUACGAUCAGUAUUCC [unlabeled nad7 competitor]”, the binding result in the data set with MBP-PPR756(41-756)-HIS [2] (vs labeled nad7 probe) is given as “binds”.
For “AAAACUAAUACCUAUUCUGUUUAGUACUUCAGGUG [probe C (nad5-1580, nad5-FAM)]”, the binding result with MBP-PPR756(41-756)-HIS [1] is listed as “no binding”.
Consider “UAUGGCGGUAACUGUCGUUUUGGUGCCAUCUUUAU [unlabeled atp6 competitor]”, for which the binding result with MBP-PPR756(41-756)-HIS [2] (vs labeled atp6 probe) is recorded as “binds”.
For the sequence “ACAGCUAUAAACAGUUUCUUGUUCCCAUUAACAA [ccmC probe (ccmC-FAM)]”, the binding result in the data set with MBP-PPR756(41-756)-HIS [1] is “binds”.
“UCCUGCUGCUCAUGGUGUUUUACGAUCAGUAUUCC [nad7 probe (nad7-FAM)]”: the binding result in the data set with MBP-PPR756(41-756)-HIS [1] is given as “binds”.

Values taken from publication PMC7303307.
